# Cleaved PARP in drug-treated melanoma cells

Values as published with doi:10.1371/journal.pone.0140310, rounded.

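The test systems are human melanoma cell lines, treated with two drugs together for 72 h and then stained and imaged. Values are the share of nuclei positive for cleaved PARP as a percentage of the same share in the DMSO control: 100 is the control level, higher means more apoptosis. Every drug was used at one fixed concentration, the higher of two screened. These are primary screening values without error estimates. Basal and induced levels differ widely between cell lines.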
This is part of the screen, not chosen by result.
A dash means that no value is listed here.

Compounds and concentrations:
etoposide: COc1cc([C@@H]2c3cc4c(cc3[C@@H](O[C@@H]3O[C@@H]5CO[C@@H](C)O[C@H]5[C@H](O)[C@H]3O)[C@H]3COC(=O)[C@H]23)OCO4)cc(OC)c1O at 100 nM
ZM336372: Cc1ccc(NC(=O)c2cccc(N(C)C)c2)cc1NC(=O)c1ccc(O)cc1 at 10000 nM
BMS-536924: Cc1cc(N2CCOCC2)cc2[nH]c(-c3c(NC[C@@H](O)c4cccc(Cl)c4)cc[nH]c3=O)nc12 at 1000 nM
fingolimod: CCCCCCCCc1ccc(CCC(N)(CO)CO)cc1 at 10000 nM
ABT-263: CC1(C)CCC(c2ccc(Cl)cc2)=C(CN2CCN(c3ccc(C(=O)NS(=O)(=O)c4ccc(N[C@H](CCN5CCOCC5)CSc5ccccc5)c(S(=O)(=O)C(F)(F)F)c4)cc3)CC2)C1 at 2000 nM
lapatinib: CS(=O)(=O)CCNCc1ccc(-c2ccc3ncnc(Nc4ccc(OCc5cccc(F)c5)c(Cl)c4)c3c2)o1 at 4000 nM
A-769662: N#Cc1c(O)c2c(-c3ccc(-c4ccccc4O)cc3)csc2[nH]c1=O at 10000 nM
PF-04217903: OCCn1cc(-c2cnc3nnn(Cc4ccc5ncccc5c4)c3n2)cn1 at 5000 nM
MK-1775: C=CCn1c(=O)c2cnc(Nc3ccc(N4CCN(C)CC4)cc3)nc2n1-c1cccc(C(C)(C)O)n1 at 100 nM

| # | Drugs | COLO 800 | RVH-421 | SK-MEL-5 | LOX IMVI | MZ2-MEL | WM3619 | WM1716 | IST-MEL1 | COLO 829 | MeWo | UACC-257 | IPC-298 | WM115 | 501mel | COLO 792 |
|---|---|---|---|---|---|---|---|---|---|---|---|---|---|---|---|---|
| 1 | fingolimod and A-769662 | 443 | 139 | 142 | 384 | 6580 | 1530 | 4360 | 328 | 403 | 355 | 140 | 70.2 | 1670 | 12400 | 9010 |
| 2 | ZM336372 and PF-04217903 | 85.9 | 45.0 | 149 | 602 | 147 | 92.5 | 117 | 111 | 79.2 | 104 | 95.4 | 68.8 | 167 | - | 74.7 |
| 3 | MK-1775 and lapatinib | 196 | 93.7 | 167 | 160 | 103 | 272 | 64.4 | 63.4 | 217 | 120 | 78.5 | 41.1 | 254 | - | 244 |
| 4 | A-769662 and ABT-263 | 212 | 66.5 | 136 | 51.5 | 254 | 89.2 | 369 | 77.2 | 109 | 138 | 469 | 183 | 239 | 149 | 1900 |
| 5 | PF-04217903 and fingolimod | 574 | 47.8 | 42.4 | 169 | 114 | 4490 | 19.9 | 368 | 149 | 60.7 | 91.2 | 91.7 | 1140 | - | 442 |
| 6 | etoposide and BMS-536924 | 222 | 41.9 | 82.4 | 228 | 280 | 109 | 139 | 115 | 90.4 | 91.0 | 73.9 | 58.2 | 58.9 | - | 183 |
| 7 | MK-1775 and PF-04217903 | 164 | 165 | 254 | 530 | - | 389 | 131 | 196 | 113 | 64.5 | 159 | 88.5 | 337 | - | 50.3 |
| 8 | ABT-263 and PF-04217903 | 347 | 57.3 | 290 | 100 | 151 | 411 | 4220 | 256 | 132 | 297 | 2510 | 96.7 | 334 | - | 440 |
| 9 | ABT-263 and MK-1775 | 126 | 77.4 | 103 | 422 | 141 | 583 | 1980 | 195 | 198 | 534 | 496 | 46.0 | 814 | - | 1190 |
| 10 | etoposide and PF-04217903 | 147 | 110 | 76.5 | 53.5 | 87.4 | 136 | 85.1 | 26.8 | 104 | 118 | 37.2 | 244 | 75.2 | - | 111 |
| 11 | ZM336372 and BMS-536924 | 148 | 27.8 | 228 | 64.9 | 119 | 121 | 45.2 | 170 | 172 | 18.4 | 66.5 | 37.3 | 1030 | - | 151 |
| 12 | etoposide and ABT-263 | 130 | 610 | 201 | 61.4 | 875 | 207 | 1910 | 123 | 102 | 246 | 1080 | 338 | 217 | - | 943 |
| 13 | lapatinib and PF-04217903 | 71.9 | 93.2 | 56.6 | 83.1 | 51.6 | 121 | 28.2 | 92.7 | 79.2 | 30.4 | 50.9 | 24.7 | 52.2 | - | 82.7 |
| 14 | A-769662 and PF-04217903 | 128 | 122 | 216 | 139 | 50.8 | 121 | 31.1 | 67.4 | 81.0 | 109 | 46.0 | 95.3 | 157 | 111 | 124 |
| 15 | ZM336372 and MK-1775 | 93.4 | 87.3 | 208 | 33.1 | 29.8 | 222 | 79.8 | 33.4 | 70.1 | 130 | 41.0 | 45.0 | 270 | - | 111 |
| 16 | lapatinib and ZM336372 | 169 | 130 | 218 | 374 | 118 | 170 | 50.6 | 48.1 | 180 | 93.1 | 38.9 | 135 | 85.1 | - | 250 |
| 17 | BMS-536924 and MK-1775 | 130 | 100 | 290 | 89.1 | 295 | 204 | 160 | 113 | 72.3 | 198 | 74.1 | 83.6 | 66.8 | - | 250 |
| 18 | etoposide and A-769662 | 59.5 | 59.6 | 98.0 | 158 | 90.9 | 144 | 117 | 69.6 | 79.8 | 127 | 27.7 | 207 | 60.5 | 103 | 73.9 |
| 19 | ABT-263 and BMS-536924 | 149 | 72.0 | 64.5 | 137 | 752 | 113 | 2890 | 206 | 106 | 275 | 297 | 167 | 82.8 | - | 1890 |
| 20 | etoposide and fingolimod | 486 | 2450 | 250 | 1790 | 21700 | 1700 | 87.1 | 635 | 358 | 293 | 53.7 | 271 | 5460 | - | 6140 |
| 21 | fingolimod and BMS-536924 | 225 | 5870 | 277 | 1210 | 905 | 5170 | 17500 | 1880 | 75.4 | 717 | 193 | 83.5 | 2570 | - | 12400 |
| 22 | ABT-263 and ZM336372 | 206 | 468 | 321 | 168 | 559 | 104 | 1190 | 98.8 | 303 | 337 | 394 | 67.7 | 69.1 | - | 668 |
| 23 | MK-1775 and A-769662 | 83.7 | 51.7 | 201 | 67.8 | 169 | 346 | 59.5 | 49.1 | 105 | 16.0 | 41.0 | 67.0 | 60.8 | 319 | 111 |
| 24 | BMS-536924 and PF-04217903 | 266 | 131 | 102 | 208 | 128 | 139 | 40.1 | 108 | 82.9 | 85.6 | 95.4 | 144 | 77.5 | - | 205 |
| 25 | BMS-536924 and A-769662 | 130 | 154 | 110 | 95.8 | 111 | 111 | 50.8 | 56.5 | 21.8 | 64.0 | 63.4 | 125 | 89.8 | 136 | 157 |
| 26 | fingolimod and lapatinib | 505 | 208 | 1010 | 1060 | 2740 | 3590 | 14100 | 1590 | 3920 | 1460 | 929 | 14300 | 1570 | - | 13700 |
| 27 | fingolimod and ZM336372 | 221 | 2940 | 252 | 19700 | - | 8610 | 2900 | 1630 | 244 | 1620 | 216 | 296 | 6270 | - | 8910 |
| 28 | lapatinib and BMS-536924 | 665 | 46.9 | 236 | 948 | 144 | 123 | 121 | 187 | 62.9 | 454 | 87.0 | 43.7 | 194 | - | 602 |
| 29 | ZM336372 and A-769662 | 45.7 | 151 | 111 | 72.4 | 39.5 | 109 | 53.2 | 62.6 | 160 | 80.4 | 20.9 | 92.7 | 49.9 | 151 | 131 |
| 30 | etoposide and lapatinib | 101 | 162 | 264 | 227 | 135 | 96.9 | 27.2 | 186 | 196 | 195 | 45.1 | 150 | 417 | - | 143 |
| 31 | lapatinib and A-769662 | 187 | 128 | 93.6 | 103 | 131 | 136 | 19.9 | 272 | 51.7 | 47.5 | 56.6 | 43.1 | 57.8 | 75.7 | 232 |
| 32 | etoposide and MK-1775 | 224 | 52.3 | 222 | 201 | 129 | 295 | 34.4 | 264 | 123 | 245 | 33.9 | 103 | 174 | - | 228 |

3 of the entries, repeated:

Drugs,COLO 800,RVH-421,SK-MEL-5,LOX IMVI,MZ2-MEL,WM3619,WM1716,IST-MEL1,COLO 829,MeWo,UACC-257,IPC-298,WM115,501mel,COLO 792
etoposide and lapatinib,101,162,264,227,135,96.9,27.2,186,196,195,45.1,150,417,-,143
MK-1775 and lapatinib,196,93.7,167,160,103,272,64.4,63.4,217,120,78.5,41.1,254,-,244
lapatinib and A-769662,187,128,93.6,103,131,136,19.9,272,51.7,47.5,56.6,43.1,57.8,75.7,232